The values that follow come from publication doi:10.1101/2020.03.02.973057.

No constants are given. Whether binding was seen depends on the method and setting. Binding seen in cells or lysates may run through a third protein. A yes stands for co-enrichment or nearness to the bait. Other partners may have been found. For part of these data: Sequences can lack the tags named with a protein.

Holding throughout (assay): affinity purification with mass spectrometry
For assay [1], the target named is T1, V5-MKT1 (Trypanosoma brucei) (UniProt Q587E3).
T1 sequence: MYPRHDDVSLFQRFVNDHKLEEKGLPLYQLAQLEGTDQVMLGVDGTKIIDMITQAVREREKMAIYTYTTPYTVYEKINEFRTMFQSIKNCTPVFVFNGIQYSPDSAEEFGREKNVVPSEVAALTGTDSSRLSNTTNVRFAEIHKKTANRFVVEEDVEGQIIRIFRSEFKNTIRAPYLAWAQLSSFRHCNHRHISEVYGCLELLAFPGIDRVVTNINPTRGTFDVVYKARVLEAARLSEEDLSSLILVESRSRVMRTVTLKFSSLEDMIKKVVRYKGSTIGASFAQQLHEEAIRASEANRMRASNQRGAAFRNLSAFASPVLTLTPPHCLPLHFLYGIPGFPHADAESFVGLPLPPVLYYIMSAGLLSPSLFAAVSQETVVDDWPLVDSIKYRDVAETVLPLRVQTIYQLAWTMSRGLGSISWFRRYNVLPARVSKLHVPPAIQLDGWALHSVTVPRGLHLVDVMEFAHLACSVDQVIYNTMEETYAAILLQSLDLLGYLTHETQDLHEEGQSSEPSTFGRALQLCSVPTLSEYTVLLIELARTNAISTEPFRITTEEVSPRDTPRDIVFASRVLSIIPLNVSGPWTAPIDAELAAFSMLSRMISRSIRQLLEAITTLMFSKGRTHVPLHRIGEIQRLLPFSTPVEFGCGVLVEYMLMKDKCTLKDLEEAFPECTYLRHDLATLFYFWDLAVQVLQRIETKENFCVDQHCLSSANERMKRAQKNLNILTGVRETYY

The target in assay [2] is T2, V5-MKT1L (Trypanosoma brucei) (UniProt Q38C92).
T2 sequence: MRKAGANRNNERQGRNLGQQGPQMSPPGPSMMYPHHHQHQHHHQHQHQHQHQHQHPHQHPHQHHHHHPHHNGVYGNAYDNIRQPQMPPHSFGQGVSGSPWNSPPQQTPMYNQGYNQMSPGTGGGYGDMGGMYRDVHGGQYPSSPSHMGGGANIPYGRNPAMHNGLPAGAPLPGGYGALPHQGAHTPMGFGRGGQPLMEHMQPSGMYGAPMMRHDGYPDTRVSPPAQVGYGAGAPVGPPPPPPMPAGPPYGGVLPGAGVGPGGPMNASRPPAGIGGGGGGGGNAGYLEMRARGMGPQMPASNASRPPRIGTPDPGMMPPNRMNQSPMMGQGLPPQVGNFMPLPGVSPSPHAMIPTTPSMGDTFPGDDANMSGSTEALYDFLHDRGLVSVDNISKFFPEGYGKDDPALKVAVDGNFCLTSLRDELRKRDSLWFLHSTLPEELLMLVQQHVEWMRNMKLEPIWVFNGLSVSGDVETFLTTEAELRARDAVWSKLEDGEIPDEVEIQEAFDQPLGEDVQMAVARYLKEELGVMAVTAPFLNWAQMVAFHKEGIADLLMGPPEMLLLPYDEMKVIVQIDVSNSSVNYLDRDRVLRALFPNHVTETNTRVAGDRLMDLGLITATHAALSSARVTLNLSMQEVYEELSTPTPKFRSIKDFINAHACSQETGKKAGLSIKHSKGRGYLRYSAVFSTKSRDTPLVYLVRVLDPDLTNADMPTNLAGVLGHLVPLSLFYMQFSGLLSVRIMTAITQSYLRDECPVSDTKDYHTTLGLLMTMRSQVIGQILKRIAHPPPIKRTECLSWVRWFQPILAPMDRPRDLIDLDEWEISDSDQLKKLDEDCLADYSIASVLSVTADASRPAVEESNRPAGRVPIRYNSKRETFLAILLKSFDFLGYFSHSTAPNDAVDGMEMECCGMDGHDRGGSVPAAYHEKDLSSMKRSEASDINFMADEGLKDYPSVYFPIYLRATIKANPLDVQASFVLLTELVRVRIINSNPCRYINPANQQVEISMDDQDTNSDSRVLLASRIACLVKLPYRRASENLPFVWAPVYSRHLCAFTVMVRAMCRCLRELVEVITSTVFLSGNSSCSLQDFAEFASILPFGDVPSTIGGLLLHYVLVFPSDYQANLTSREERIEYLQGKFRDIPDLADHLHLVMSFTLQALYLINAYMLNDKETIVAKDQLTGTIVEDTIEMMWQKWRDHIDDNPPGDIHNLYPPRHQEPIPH

The target of assay [3] is T3, MKT1L-TAP (Trypanosoma brucei) (UniProt Q38C92).
T3 sequence: T2 sequence

Assay [4] addresses T4, XAC1-TAP (eXpression ACtivator 1, Tb927.7.2780, with C-terminal tandem affinity purification tag) (Trypanosoma brucei) (UniProt Q57Y88).
T4 sequence: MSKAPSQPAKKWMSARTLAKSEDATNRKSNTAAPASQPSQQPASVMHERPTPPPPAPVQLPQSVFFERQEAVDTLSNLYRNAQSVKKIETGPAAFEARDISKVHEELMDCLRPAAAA

B1: PBP1 (protein, UniProt Q57UZ7 1-550)
chain: MEGSHSSNMERLEYLYLNLVGQVVQVRLVDDMCVEGLFVACTDVDAETDAGIMICCTRNLASAKRSPLSPSCVNFTDDLFIPYQSIVMIEVQNAKIRTETPGRPDTGRADFSATKFDWADDGVSELLESEPHQTGTWNQFEANEKSFGVKTTYKEEFYTTRLDHSKITEEQRAQADRLAREIESSSTRGIAHRMEREECLHDDEGLDEGQLYSDVHRPQEKKPPYVPPSTGGRKLVNEPPPVPAAAAPATAPTTAPAAAPAPAAAPPAAAPAAAAPPPPPAATSMADDGSMRHKRMNEDPHHMQYDANQTAAGFNPAAAPYTPMKPGAAVPVVDFLASLADAISNNDMCYDCEPHWPGMCNLFYDQDDSSYSQQNYEAAAMPPSHSMNMHMYVNSQPNIPNAHRGYQGPLGRVPHNQSMPMHHMQGQGFHHEMHHHQAFHGMGNYSSQHHNPPIQEYAPHKGQQGVVSRPGMRQGKGGGASRVEPQQPVSANTASSPPPVPTVDSAPNEVKPPAKLQRGRGMAAFTKGDMDGDSGATTNATGGPKKRVGK
With B1, the binding result in assay [1], in assay [2] and in assay [3] was “binds” throughout.

B2: XAC1 (Tb927.7.2780) (protein, UniProt Q57Y88 1-117)
chain: T4 sequence
With B2, the binding result in assay [2] and in assay [3] was “binds” in each case.

B3: ZC3H20 (protein, UniProt Q57XK8 1-405)
chain: MQLVASPLETRRDIMCFEKGVECMVVVDPATRKLRIPLSCVYPTRAHQRTTIPSLCLLFLDGRCRQGTQCHQVHAALNVVAALRSQVDYLPICCALHGDRDYVNALDNRSWMSRVVVHVPDATYGGGYIPLARFSYTTPISRLLDALFHSTPQAEGQDGAQWESRAFGTPPSCLVLEAGDITLCRLHVQDRCRYAEECNYLHICKEVARCDRGLTLGQRPRSWKKPPSSSPSGGCFVVTASGTSMPPPPAAAAACDAPTPVSGGWTCPGSPTGSLFGANRSVTLGDASVTTQPAVVRCCDPSSCTEAHSVVDCGQAHIPFSLSRQVSDIHMRQVSSTFFPSDNLSLDVDPSTSGDCLAEQGCGMTPNIVVVTRNGKGGRERWHYNPYGTNGTDRGIEKGEGRGRN
Consider B3, for which, in assay [4], the binding entry is listed as “binds”.

B4: LSM12 (protein, UniProt Q38E83 1-190)
chain: MPVCNNDSQLIGLGVSVTLADDTTVNGTVYTYNSSEGLLVLFQGFSGSNPNVKIIRTPFIKEVTALRDNEEKLPPQLEAKARLPSMQAARDRSLFKHASSQLRNAKDKRNQLLQTDDQKTPIAALDTLIKLERIYPDIHWDKDAGVIRFNQDVVVKGKPDWTSPAVVIAEGAGDISRSLMERVQKTLSKK
As to B4, the binding entry in assay [1], in assay [2] and in assay [3] was “binds” each time.
